Assay results from publication PMC3633961.
No constants are given. Whether binding was seen depends on the method and setting. Binding seen in cells or lysates may run through a third protein. Some entries that bind do so weakly or less than the wild type. For part of these data: Tags and fused reporters may be left off the sequences shown. One block for each molecule: values may come before it.

By UniProt entry, the sequences of proteins in these tests, tags left out. Residues count along the entry.
UniProt Q15058: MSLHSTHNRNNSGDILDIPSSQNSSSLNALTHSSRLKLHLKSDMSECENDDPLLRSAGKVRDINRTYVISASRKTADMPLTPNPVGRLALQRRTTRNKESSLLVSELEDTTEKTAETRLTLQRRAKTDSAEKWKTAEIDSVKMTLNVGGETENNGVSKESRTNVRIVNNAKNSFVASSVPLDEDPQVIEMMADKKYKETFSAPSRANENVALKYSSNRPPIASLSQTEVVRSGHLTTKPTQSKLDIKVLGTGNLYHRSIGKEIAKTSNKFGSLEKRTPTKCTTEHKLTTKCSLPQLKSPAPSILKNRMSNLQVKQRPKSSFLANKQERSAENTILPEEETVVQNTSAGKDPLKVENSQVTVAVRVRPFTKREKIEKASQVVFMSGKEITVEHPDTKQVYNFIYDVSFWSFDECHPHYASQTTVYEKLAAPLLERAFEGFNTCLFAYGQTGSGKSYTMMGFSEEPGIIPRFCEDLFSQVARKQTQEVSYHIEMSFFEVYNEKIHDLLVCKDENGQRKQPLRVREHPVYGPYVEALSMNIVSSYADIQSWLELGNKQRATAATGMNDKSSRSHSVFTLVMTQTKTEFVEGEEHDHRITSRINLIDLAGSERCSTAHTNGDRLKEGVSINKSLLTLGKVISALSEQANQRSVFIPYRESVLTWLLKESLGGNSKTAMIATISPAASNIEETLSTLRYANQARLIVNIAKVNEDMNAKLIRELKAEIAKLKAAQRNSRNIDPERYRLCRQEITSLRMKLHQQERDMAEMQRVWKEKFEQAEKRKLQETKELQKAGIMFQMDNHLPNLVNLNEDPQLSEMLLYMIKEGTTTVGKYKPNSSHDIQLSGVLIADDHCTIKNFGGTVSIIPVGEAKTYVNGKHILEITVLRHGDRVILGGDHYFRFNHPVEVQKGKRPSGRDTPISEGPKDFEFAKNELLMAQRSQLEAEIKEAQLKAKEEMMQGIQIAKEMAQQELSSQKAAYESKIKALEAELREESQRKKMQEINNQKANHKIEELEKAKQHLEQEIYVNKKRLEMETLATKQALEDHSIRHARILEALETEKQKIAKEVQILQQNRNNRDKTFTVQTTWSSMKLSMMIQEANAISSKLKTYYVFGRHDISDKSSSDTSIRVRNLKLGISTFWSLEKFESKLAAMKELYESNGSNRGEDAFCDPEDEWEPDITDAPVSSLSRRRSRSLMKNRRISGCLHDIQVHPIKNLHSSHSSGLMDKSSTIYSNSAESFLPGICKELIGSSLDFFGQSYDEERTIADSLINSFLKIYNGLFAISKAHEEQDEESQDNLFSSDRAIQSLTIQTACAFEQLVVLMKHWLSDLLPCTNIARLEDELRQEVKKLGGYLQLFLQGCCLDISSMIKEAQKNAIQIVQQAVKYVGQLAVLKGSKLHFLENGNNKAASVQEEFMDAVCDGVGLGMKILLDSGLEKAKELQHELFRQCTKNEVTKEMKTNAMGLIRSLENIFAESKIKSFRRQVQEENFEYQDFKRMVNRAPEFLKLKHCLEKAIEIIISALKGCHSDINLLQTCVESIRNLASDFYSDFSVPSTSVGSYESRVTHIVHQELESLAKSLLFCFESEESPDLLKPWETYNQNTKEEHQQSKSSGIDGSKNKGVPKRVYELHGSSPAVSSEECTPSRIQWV
UniProt P43121, residues 24-646: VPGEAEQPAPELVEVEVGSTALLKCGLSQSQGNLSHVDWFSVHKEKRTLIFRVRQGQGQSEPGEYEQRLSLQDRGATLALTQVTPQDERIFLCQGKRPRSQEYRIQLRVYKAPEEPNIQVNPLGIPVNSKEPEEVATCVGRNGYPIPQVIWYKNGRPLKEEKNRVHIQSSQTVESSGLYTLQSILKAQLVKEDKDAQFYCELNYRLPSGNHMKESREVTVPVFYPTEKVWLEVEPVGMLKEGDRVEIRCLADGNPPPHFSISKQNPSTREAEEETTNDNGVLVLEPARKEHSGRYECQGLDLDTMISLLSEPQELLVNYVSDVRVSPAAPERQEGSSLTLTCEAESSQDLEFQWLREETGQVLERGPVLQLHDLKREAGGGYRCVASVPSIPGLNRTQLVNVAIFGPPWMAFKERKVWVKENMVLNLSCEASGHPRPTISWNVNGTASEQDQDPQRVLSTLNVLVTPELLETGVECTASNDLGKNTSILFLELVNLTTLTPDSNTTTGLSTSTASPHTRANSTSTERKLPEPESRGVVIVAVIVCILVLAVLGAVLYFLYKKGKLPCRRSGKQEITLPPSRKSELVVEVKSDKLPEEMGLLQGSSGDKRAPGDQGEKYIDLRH

Legend:
[1] = target: Flag-tagged KIF14 (human) (UniProt Q15058); experiment: co-IP; exogenous immunoprecipitation from lysate of HEK293T cells transfected with the indicated plasmids; RIPA lysis buffer, specific antibody and protein A Sepharose, washed four times with PBST; immunoblotting
[2] = target: KIF14 (endogenous) (human (endogenous in H460)) (UniProt Q15058); experiment: co-IP; endogenous immunoprecipitation from lysate of H460 cells; immunoblotting with the indicated antibodies

binding [1]: binds
Molecule: HA-tagged melanoma cell adhesion molecule (MCAM) (from UniProt P43121-1 24-646)

binding [1]: binds
B1: HA-tagged cadherin 11 (CDH11) (protein, UniProt P55287-1 54-796)
chain: GWVWNQFFVIEEYTGPDPVLVGRLHSDIDSGDGNIKYILSGEGAGTIFVIDDKSGNIHATKTLDREERAQYTLMAQAVDRDTNRPLEPPSEFIVKVQDINDNPPEFLHETYHANVPERSNVGTSVIQVTASDADDPTYGNSAKLVYSILEGQPYFSVEAQTGIIRTALPNMDREAKEEYHVVIQAKDMGGHMGGLSGTTKVTITLTDVNDNPPKFPQSVYQMSVSEAAVPGEEVGRVKAKDPDIGENGLVTYNIVDGDGMESFEITTDYETQEGVIKLKKPVDFETKRAYSLKVEAANVHIDPKFISNGPFKDTVTVKISVEDADEPPMFLAPSYIHEVQENAAAGTVVGRVHAKDPDAANSPIRYSIDRHTDLDRFFTINPEDGFIKTTKPLDREETAWLNITVFAAEIHNRHQEAKVPVAIRVLDVNDNAPKFAAPYEGFICESDQTKPLSNQPIVTISADDKDDTANGPRFIFSLPPEIIHNPNFTVRDNRDNTAGVYARRGGFSRQKQDLYLLPIVISDGGIPPMSSTNTLTIKVCGCDVNGALLSCNAEAYILNAGLSTGALIAILACIVILLVIVVLFVTLRRQKKEPLIVFEEEDVRENIITYDDEGGGEEDTEAFDIATLQNPDGINGFIPRKDIKPEYQYMPRPGLRPAPNSVDVDDFINTRIQEADNDPTAPPYDSIQIYGYEGRGSVAGSLSSLESATTDSDLDYDYLQNWGPRFKKLADLYGSKDTFDDDS

binding [2]: binds
B2: cadherin 11 (CDH11) (endogenous) (protein, UniProt P55287 54-796)
chain: B1 chain
